# Assay results published in PMC4299599, “Quantification of cytosolic interactions identifies Ede1 oligomers as key organizers of endocytosis” (Molecular Systems Biology, 2014).
# No constants are given. Whether binding was seen depends on the method and setting. Some results given as binding are weak or reduced against the parent protein; the word gives no strength.
# T1: Apl3 (S. cerevisiae, UniProt P38065 1-1025)
# T1 construct: Apl3, subunit of the AP2 complex, S. cerevisiae; also called Apl3-3myeGFP; Apl3-3mCherry; source: chromosomally tagged at the endogenous locus, in the cytoplasm of living S. cerevisiae cells
# T1 sequence (looked up): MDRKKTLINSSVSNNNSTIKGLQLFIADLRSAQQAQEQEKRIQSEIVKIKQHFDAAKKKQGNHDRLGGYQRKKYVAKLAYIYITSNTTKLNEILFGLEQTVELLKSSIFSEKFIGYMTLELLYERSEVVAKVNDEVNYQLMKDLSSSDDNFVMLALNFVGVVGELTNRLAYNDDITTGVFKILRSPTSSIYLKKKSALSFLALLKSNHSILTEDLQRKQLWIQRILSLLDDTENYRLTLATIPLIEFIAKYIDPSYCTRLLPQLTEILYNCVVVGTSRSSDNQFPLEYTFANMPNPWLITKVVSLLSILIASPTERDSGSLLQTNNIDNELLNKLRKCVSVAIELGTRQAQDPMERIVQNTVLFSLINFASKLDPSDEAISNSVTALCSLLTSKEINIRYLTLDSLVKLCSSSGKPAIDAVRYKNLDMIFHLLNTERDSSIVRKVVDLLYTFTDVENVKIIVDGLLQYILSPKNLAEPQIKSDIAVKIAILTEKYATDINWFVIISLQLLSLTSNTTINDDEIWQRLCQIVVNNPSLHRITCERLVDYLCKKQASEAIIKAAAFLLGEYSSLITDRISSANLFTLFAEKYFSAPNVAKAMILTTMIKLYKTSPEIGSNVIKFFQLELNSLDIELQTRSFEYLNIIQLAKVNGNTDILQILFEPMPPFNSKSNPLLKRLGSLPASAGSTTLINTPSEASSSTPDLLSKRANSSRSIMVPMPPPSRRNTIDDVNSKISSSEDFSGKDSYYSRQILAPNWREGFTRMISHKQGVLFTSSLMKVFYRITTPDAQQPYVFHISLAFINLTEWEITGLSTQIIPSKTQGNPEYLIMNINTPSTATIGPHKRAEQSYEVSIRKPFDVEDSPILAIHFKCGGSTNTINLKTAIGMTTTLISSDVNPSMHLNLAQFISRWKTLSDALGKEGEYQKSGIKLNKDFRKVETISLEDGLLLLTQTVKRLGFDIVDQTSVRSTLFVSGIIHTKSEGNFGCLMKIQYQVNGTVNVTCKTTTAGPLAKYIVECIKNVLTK
# T2: Ste11 (S. cerevisiae) (UniProt P23561)
# T2 sequence: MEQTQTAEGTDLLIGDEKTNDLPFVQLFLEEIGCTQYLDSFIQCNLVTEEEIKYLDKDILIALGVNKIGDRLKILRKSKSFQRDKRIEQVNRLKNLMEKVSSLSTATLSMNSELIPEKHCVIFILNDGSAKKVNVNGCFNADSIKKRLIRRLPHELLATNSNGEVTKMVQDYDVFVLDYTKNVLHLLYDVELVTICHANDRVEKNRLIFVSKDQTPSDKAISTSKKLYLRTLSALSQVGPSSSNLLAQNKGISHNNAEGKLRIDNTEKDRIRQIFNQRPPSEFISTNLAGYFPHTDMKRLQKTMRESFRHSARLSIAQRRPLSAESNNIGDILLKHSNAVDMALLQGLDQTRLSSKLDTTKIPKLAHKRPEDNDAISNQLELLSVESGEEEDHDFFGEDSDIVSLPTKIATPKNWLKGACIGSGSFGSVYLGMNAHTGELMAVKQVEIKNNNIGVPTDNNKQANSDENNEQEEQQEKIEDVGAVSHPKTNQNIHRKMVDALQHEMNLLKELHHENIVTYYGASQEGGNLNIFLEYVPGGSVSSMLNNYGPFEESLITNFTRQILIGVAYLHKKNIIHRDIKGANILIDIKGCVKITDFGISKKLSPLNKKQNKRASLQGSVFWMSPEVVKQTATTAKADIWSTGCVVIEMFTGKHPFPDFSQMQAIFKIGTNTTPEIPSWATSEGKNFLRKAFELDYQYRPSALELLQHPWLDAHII
# B1: Apl1 (natural protein, S. cerevisiae, UniProt P27351 1-700, looked up)
# chain: MSDQKVFARYKANEIVTDLQHFGVKKFKSNITRRKNALRKIIANLVLGNYGEMSVLFSELLKFWQIEDDLEVKRICHEYIRVIGALKPQQAREALPFIMDDFKSRDEKLQIMALRTLVLVPVKELSDQAFDCIISLVNHKSPPEQVTRTAIYALLDLDEIDHERVLGLSSILHDIVKAQSSSPEVIVAALHTLYSIHEKNANMEPFRIPLELAFDMLELLPELNEWNKATVLEVLTTSVVPQHYLDTHEMIELALPYLQQVNTYVVLNSLKFIMYLLNYVDVIKETLAEKLSNSVIALLDKPPELQFLVLRNVILLLLSRESSLLRLDISYFFIEYNDPIYIKDTKLECLYLLANKETLPRILEELEQYATDIDIQMSRKSVRAIGNLAVKLDEDSVHDCVAVLLDLLEFGVDYVVQEIISVFRNILRKYPNNFKANVTELVKHTEVVQEPESKNAMIWIITQYSDVIPNYLELFRVFSSNMFSETLEVQFSILNSAIKFFIRSPTKETEELCMDLLKGCIDHENNPDLRDKTLMYWRLLSLTKTSRISNAITFESLKSVLDGELPLIEMNTKLDPTVLEELELNIGTIVSIYLKPVSHIFRLNKTKLLPQSPILNPNKDLLPVVGNSFPPTGANRDRQNSESQSSTKSRKTAMMDDYDKPAEKINQLKGKRKSSSNNPSKLSRKPSTLLRKLSMKRPFS
# notes: Apl1, subunit of the AP2 complex, S. cerevisiae; also called Apl1-1myeGFP; Apl1-3mCherry; source: chromosomally tagged at the endogenous locus, in the cytoplasm of living S. cerevisiae cells
# B2: Don1 (protein, UniProt Q05610 1-365)
# chain: MGKKNRKGKENNAAKTSFLKVENIKNTNSGLELPSQDYTNVEEKESSPKTDFPLITKEHVNTKTDSNILDYPTIGDLVSSVEKLCVLKELKIAFPEVDDTLIKAILIASQGVLEPAFNSLLYYSSPEENTDFALPMKPISVEDYSKINVSEILQREIFDDIEDEFSGQGINGSMVISKIESELSSLAEHIGNISTPGSNREVAESTRNVAVAEGHNTILSNEDSILKGKEKGKEEEKEKGEEKGVNSLKGAAVKVVAKSLKNNRIPVTVKRNEPSNNLFDVLNCDESEEEEEQDVETNTSNQERKNQGGNTEVPEAQRDSADRLPAKDDGGYKSAFGTDSCGLFAADAKDEKKQVHPSRQELSFT
# Assays:
# [1] = target: T1, Apl3; assay: fluorescence cross-correlation spectroscopy (FCCS); living yeast cells, observation volume in the cytoplasm; one protein tagged with (3)myeGFP/eGFP and the other with 3mCherry in the same strain; apparent (effective) KD; interactions up to ~1 μM detectable
# [2] = target: Apl1 (S. cerevisiae) (UniProt P27351); assay: condition: 1000 nM (only Kdeff-values < 1000 nM are shown); fluorescence cross-correlation spectroscopy (FCCS); in the cytoplasm of living yeast cells; first-named protein green (3myeGFP or 1myeGFP; eGFP for Don1), second red (3mCherry); self-interaction in diploid strains with one allele of each colour; apparent or effective KD (Kdeff) from single-cell measurements; only Kdeff values < 1000 nM are shown; values for self-interactions are upper limits
# [3] = target: T2, Ste11 (S. cerevisiae); assay: as above
Binder,binding [1],binding [2],binding [3]
B1,binds,no binding,
B2,,,no binding
